# According to paper PMC5996148:
# The chains behind the UniProt entries cited, without tags or fusion partners. Where a name states a change or a piece, a line headed by the entry shows the natural chain unless it says otherwise.
# UniProt P54578: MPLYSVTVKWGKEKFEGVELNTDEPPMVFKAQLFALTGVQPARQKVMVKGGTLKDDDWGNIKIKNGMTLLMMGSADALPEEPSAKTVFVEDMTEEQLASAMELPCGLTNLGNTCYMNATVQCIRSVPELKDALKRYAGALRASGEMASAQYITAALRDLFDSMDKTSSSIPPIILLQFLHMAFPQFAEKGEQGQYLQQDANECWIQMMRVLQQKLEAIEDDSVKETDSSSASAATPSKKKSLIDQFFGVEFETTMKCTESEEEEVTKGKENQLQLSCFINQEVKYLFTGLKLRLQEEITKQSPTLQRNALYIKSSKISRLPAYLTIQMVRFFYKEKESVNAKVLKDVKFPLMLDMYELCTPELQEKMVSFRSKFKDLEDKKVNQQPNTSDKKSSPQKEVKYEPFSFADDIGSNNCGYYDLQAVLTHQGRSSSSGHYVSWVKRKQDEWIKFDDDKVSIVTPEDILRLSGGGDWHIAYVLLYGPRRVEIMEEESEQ
# The other results are listed elsewhere or left out. For some assays here: The source does not settle which construct or isoform was used.
# How the values were obtained:
# Experiment in all cases: protein microarray (ProtoArray v5.0), streptavidin-Alexa Fluor 647
# Settings in all cases: 3'-biotin; 20 mM Tris (pH 7.5), 5 mM MgCl2, 100 mM KCl, 0.1% Tween-20, A/T-rich and random oligonucleotide blockers; temperature not stated; high values mean tight binding
# [1] = test system: UPF0484 protein FAM167A (human)
# [2] = target: UPF0544 protein C5orf45 [Source:UniProtKB/Swiss-Prot + Acc:Q6NTE8] (human)
# [3] = test system: UPF0545 protein C22orf39 (human)
# [4] = test system: UPF0546 membrane protein C1orf91 (human)
# [5] = test system: UPF0627 protein ENSP00000358171 (human)
# UPK3A (human) = test system: UPK3A (human)
# UPK3B (human) = test system: UPK3B (human)
# UPP1 (human) = test system: UPP1 (human)
# UPP2 (human) = test system: UPP2 (human)
# UROS (human) = test system: UROS (human)
# USE1 (human) = test system: USE1 (human)
# USH1C (human) = test system: USH1C (human)
# USP12 (human) = test system: USP12 (human)
# USP14 = USP14 (UniProt P54578)
# USP15 (human) = test system: USP15 (human)
# USP3 (human) = test system: USP3 (human)
# USP4 (human) = test system: USP4 (human)
# USP47 (human) = test system: USP47 (human)
# USP48 (human) = test system: USP48 (human)
# USP5 = target: T1, USP5 (UniProt P45974)
# T1 sequence: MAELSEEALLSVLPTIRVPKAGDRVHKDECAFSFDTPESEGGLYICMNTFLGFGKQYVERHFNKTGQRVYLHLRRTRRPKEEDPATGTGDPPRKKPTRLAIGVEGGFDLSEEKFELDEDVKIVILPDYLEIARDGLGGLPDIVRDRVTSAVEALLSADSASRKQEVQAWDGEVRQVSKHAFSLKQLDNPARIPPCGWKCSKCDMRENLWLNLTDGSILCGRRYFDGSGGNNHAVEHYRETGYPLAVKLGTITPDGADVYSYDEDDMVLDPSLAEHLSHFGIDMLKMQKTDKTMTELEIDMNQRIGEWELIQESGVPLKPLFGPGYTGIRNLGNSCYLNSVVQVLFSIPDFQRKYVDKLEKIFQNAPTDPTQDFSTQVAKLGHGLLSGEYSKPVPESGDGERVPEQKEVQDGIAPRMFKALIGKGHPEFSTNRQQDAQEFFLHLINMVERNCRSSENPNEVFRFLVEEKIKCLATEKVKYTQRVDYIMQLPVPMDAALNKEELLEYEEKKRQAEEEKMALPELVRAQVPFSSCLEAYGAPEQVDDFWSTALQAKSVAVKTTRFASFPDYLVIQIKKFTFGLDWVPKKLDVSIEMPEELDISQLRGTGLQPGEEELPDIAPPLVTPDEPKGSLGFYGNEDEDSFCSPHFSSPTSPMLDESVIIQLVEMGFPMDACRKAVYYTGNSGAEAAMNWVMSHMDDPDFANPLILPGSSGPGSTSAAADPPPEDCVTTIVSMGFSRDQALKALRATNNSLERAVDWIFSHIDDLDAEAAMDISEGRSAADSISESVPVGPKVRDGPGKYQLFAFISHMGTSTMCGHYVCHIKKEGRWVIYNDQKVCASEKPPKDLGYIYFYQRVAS
sequence,measurement,setting,value
GGGAGGCTGAGGCAGG [G4-1 biotinylated (PQS2)],binding signal,[1],-0.258 z-score
same,binding signal,[2],-0.296 z-score
same,binding signal,[3],-0.318 z-score
same,binding signal,[4],-0.348 z-score
same,binding signal,[5],-0.335 z-score
same,binding signal,UPK3A (human),-0.323 z-score
same,binding signal,UPK3B (human),-0.323 z-score
same,binding signal,UPP1 (human),-0.25 z-score
same,binding signal,UPP2 (human),-0.35 z-score
same,binding signal,UROS (human),-0.327 z-score
same,binding signal,USE1 (human),-0.339 z-score
same,binding signal,USH1C (human),-0.264 z-score
same,binding signal,USP12 (human),-0.281 z-score
same,binding signal,USP14,-0.286 z-score
same,binding signal,USP15 (human),-0.334 z-score
same,binding signal,USP3 (human),-0.311 z-score
same,binding signal,USP4 (human),-0.331 z-score
same,binding signal,USP47 (human),-0.331 z-score
same,binding signal,USP48 (human),-0.356 z-score
same,binding signal,USP5,-0.331 z-score

# Laid out differently: results already given
sequence	measurement	setting	value
GGGAGGCTGAGGCAGG [G4-1 biotinylated (PQS2)]	binding signal	USP12 (human)	-0.281 z-score
same	binding signal	USP14	-0.286 z-score
same	binding signal	USP15 (human)	-0.334 z-score
same	binding signal	USP3 (human)	-0.311 z-score
